Test results as given in article PMC8670385.
No constants are given. Whether binding was seen depends on the method and setting. In cells and extracts the contact can be indirect. Some results given as binding are weak or reduced against the parent protein; the word gives no strength.

Chains of the proteins cited; added tags and fusions are not shown.
UniProt Q13546: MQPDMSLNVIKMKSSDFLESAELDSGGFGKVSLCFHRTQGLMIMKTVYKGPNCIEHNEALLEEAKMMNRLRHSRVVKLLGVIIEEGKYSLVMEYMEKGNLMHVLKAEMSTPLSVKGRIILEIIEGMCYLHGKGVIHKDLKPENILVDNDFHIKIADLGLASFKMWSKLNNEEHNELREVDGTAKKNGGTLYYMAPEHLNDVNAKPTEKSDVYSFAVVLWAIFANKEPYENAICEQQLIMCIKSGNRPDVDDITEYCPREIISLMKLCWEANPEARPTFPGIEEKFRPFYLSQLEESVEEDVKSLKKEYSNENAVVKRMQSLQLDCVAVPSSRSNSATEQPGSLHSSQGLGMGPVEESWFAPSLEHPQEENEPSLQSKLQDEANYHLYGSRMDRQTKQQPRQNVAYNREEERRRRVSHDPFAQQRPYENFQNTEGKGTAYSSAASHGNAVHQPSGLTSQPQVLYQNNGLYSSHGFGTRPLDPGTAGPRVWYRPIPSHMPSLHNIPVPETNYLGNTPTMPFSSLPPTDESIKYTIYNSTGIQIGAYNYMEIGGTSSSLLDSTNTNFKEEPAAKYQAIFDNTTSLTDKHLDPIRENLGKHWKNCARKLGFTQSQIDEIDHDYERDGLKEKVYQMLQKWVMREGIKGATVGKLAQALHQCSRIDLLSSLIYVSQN
UniProt Q9Y572: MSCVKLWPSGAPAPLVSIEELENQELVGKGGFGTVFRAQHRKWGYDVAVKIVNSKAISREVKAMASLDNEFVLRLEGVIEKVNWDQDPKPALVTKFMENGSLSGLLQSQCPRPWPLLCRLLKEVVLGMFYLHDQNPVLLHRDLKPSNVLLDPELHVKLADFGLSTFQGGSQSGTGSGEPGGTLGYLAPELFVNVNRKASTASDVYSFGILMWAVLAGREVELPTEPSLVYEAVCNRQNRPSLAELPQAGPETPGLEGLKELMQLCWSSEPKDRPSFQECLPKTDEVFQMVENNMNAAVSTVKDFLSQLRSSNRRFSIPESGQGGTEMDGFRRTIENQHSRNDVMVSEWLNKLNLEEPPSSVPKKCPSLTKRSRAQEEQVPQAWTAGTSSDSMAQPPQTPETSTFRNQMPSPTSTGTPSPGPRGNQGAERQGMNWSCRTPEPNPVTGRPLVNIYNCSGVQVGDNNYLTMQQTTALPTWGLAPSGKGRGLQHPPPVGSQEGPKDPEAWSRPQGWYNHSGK

How the values were obtained:
[1] = biological target: receptor-interacting serine-threonine kinase 1 (human (endogenous in HTR8/SVneo)) (UniProt Q13546); experiment: co-IP; HTR8/SVneo cells treated with GSK180736A; lysed in 50 mM Tris-Cl pH 7.5, 150 mM NaCl, 1 mM EDTA, 1% Triton X-100; 1 mg lysate with anti-RIPK1 or anti-RIPK3 antibody on Protein A/G magnetic beads; immunoblot
[2] = biological target: receptor-interacting serine-threonine kinase 1 (human (endogenous in HTR8/SVneo)) (UniProt Q13546); experiment: condition: only cells without GSK180736A (control group); co-IP; HTR8/SVneo cells without GSK180736A (control group); lysed in 50 mM Tris-Cl pH 7.5, 150 mM NaCl, 1 mM EDTA, 1% Triton X-100; 1 mg lysate with anti-RIPK1 or anti-RIPK3 antibody on Protein A/G magnetic beads; immunoblot

## receptor-interacting serine-threonine kinase 3 (from UniProt Q9Y572 1-518)
[1]
  binding: binds
[2]
  binding: no binding
